Changes are numbered by the printed parent chain. These are yes or no findings as the source states them, for the method shown. Some binding calls cover weakened binding; strength is not graded here.
How the values were obtained:
[1] = target: Factor X (Enzyme Research Laboratories) (UniProt P00742); assay: Factor X ELISA (FIG. 5)
[2] = target: Factor X (Enzyme Research Laboratories) (UniProt P00742); assay: Factor X ELISA (FIG. 8)
[3] = target: MG10-GST fusion protein (fusion protein of GST and MG10, Gln213 to Ala231 of human MpI) (human) (UniProt P40238); assay: affinity chromatography on MG10-GST fusion protein-immobilized column, elution with 100 mM Glycine-HCl (pH 3.5)
[4] = target: MG10-GST fusion protein (fusion protein of GST and MG10, Gln213 to Ala231 of human MpI) (human) (UniProt P40238); assay: affinity chromatography on MG10-GST fusion protein-immobilized column

Chains of the proteins cited; added tags and fusions are not shown. Residues count along the entry.
UniProt P00742, residues 41-488: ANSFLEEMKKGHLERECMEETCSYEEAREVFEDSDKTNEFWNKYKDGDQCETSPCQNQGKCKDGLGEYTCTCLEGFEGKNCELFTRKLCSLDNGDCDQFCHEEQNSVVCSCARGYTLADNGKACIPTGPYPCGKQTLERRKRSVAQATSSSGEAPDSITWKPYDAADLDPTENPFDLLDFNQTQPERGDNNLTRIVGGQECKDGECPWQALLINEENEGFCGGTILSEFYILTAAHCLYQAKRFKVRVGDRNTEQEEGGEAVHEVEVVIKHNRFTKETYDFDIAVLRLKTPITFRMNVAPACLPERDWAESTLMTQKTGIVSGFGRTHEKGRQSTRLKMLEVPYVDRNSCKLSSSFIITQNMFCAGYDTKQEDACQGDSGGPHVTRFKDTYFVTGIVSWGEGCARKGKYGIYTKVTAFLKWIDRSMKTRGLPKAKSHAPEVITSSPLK

B1: humanized SB04 antibody (VH: hSB04e, VL: hSBVL-F3f), wild type (antibody, V domains shown)
VH: QVQLVQSGAEVKKPGASVKVSCKASGYTFTHFVLHWVRQAPGQGLEWMGYIIPYNDGTKYNEKFKGRVTMTSDTSTSTVYMELSILRSEDTAVYFCARGNRYDVGSYAMDYWGQGTTVTSVS
VL: DIVMTQSPDSLAVSLGERATINCKSSQSLLYSSNQKNYLAWYQQKPGQPPKLLIYWASTRESGVPDRFSGSGSGTDFTLKISRVQAEDVGVYYCQQYYRFPYTFGGGTKVEIK
[1]
  binding: binds
[2]
  binding: binds

B2: humanized anti-human MpI antibody hVB22B u2-wz4 sc(Fv)2 (protein)
chain: QVQLVQSGPEVKKPGASVKVSCKASGYTFTNSWMNWVRQRPGKGLEWIGRIYPGDGETIYNGKFRVRVTITADESTSTAYMQLSSLRSEDTAVYYCARGYDDYSFAYWGQGTTVTVSSGGGGSGGGGSGGGGSDIVMTQSPLSLPVTPGEPASISCRSSKSLLHSNGNTYLYWFLQKPGQSPQLLIYRMSNLASGVPDRFSGSGSGTDFTLKISRVEAEDVGVYYCMQHIEYPFTFGQGTKLEIKGGGGSGGGGSGGGGSQVQLVQSGPEVKKPGASVKVSCKASGYTFTNSWMNWVRQRPGKGLEWIGRIYPGDGETIYNGKFRVRVTITADESTSTAYMQLSSLRSEDTAVYYCARGYDDYSFAYWGQGTTVTVSSGGGGSGGGGSGGGGSDIVMTQSPLSLPVTPGEPASISCRSSKSLLHSNGNTYLYWFLQKPGQSPQLLIYRMSNLASGVPDRFSGSGSGTDFTLKISRVEAEDVGVYYCMQHIEYPFTFGQGTKLEIK
[3]
  binding: binds

B3: hVB22B u2-wz4(v1) sc(Fv)2 (protein)
chain: B2 chain with Q39E, Q176E, Q299K, Q436K
[4]
  binding: binds

B4: hVB22B u2-wz4(v3) sc(Fv)2 (protein)
chain: B2 chain with Q39E, Q176K, Q299K, Q436E
[4]
  binding: binds
